The values that follow come from article PMC7845632.

Assay [1] deals with TmeA-BirA (C. trachomatis L2). Briefly: proximity labelling.
Assay [2] addresses TmeA-BirA (C. trachomatis L2). Briefly: proximity labelling; BirA (BioID) fusions nucleofected into HeLa, 24 h with biotin, biotinylated proteins isolated with Avidin beads, eluates probed by immunoblot with protein-specific antibodies; multiple experiments.

These are yes or no findings as the source states them, for the method shown. In cells and extracts the contact can be indirect. Here binding means that the protein was enriched with, or labelled near, the bait; the list need not be complete.

B1: SLC1A5 (ASCT2) (protein, UniProt Q15758 1-541)
chain: MVADPPRDSKGLAAAEPTANGGLALASIEDQGAAAGGYCGSRDQVRRCLRANLLVLLTVVAVVAGVALGLGVSGAGGALALGPERLSAFVFPGELLLRLLRMIILPLVVCSLIGGAASLDPGALGRLGAWALLFFLVTTLLASALGVGLALALQPGAASAAINASVGAAGSAENAPSKEVLDSFLDLARNIFPSNLVSAAFRSYSTTYEERNITGTRVKVPVGQEVEGMNILGLVVFAIVFGVALRKLGPEGELLIRFFNSFNEATMVLVSWIMWYAPVGIMFLVAGKIVEMEDVGLLFARLGKYILCCLLGHAIHGLLVLPLIYFLFTRKNPYRFLWGIVTPLATAFGTSSSSATLPLMMKCVEENNGVAKHISRFILPIGATVNMDGAALFQCVAAVFIAQLSQQSLDFVKIITILVTATASSVGAAGIPAGGVLTLAIILEAVNLPVDHISLILAVDWLVDRSCTVLNVEGDALGAGLLQNYVDRTESRSTEPELIQVKSELPLDPLPVPTEEGNPLLKHYRGPAGDATVASEKESVM
As to B1, the binding entry in assay [1] and in assay [2] was “binds” each time.

B2: podocalyxin-like protein (PODXL) (protein, UniProt O00592 23-558)
chain: SPSPSPSPSQNATQTTTDSSNKTAPTPASSVTIMATDTAQQSTVPTSKANEILASVKATTLGVSSDSPGTTTLAQQVSGPVNTTVARGGGSGNPTTTIESPKSTKSADTTTVATSTATAKPNTTSSQNGAEDTTNSGGKSSHSVTTDLTSTKAEHLTTPHPTSPLSPRQPTSTHPVATPTSSGHDHLMKISSSSSTVAIPGYTFTSPGMTTTLLETVFHHVSQAGLELLTSGDLPTLASQSAGITASSVISQRTQQTSSQMPASSTAPSSQETVQPTSPATALRTPTLPETMSSSPTAASTTHRYPKTPSPTVAHESNWAKCEDLETQTQSEKQLVLNLTGNTLCAGGASDEKLISLICRAVKATFNPAQDKCGIRLASVPGSQTVVVKEITIHTKLPAKDVYERLKDKWDELKEAGVSDMKLGDQGPPEEAEDRFSMPLIITIVCMASFLLLVAALYGCCHQRLSQRKDQQRLTEELQTVENGYHDNPTLEVMETSSEMQEKKVVSLNGELGDSWIVPLDNLTKDDLDEEEDTHL
As to B2, the binding entry in assay [1] is “binds”.

B3: formin BP1 (FNBP1) (protein, UniProt Q96RU3 1-617)
chain: MSWGTELWDQFDNLEKHTQWGIDILEKYIKFVKERTEIELSYAKQLRNLSKKYQPKKNSKEEEEYKYTSCKAFISNLNEMNDYAGQHEVISENMASQIIVDLARYVQELKQERKSNFHDGRKAQQHIETCWKQLESSKRRFERDCKEADRAQQYFEKMDADINVTKADVEKARQQAQIRHQMAEDSKADYSSILQKFNHEQHEYYHTHIPNIFQKIQEMEERRIVRMGESMKTYAEVDRQVIPIIGKCLDGIVKAAESIDQKNDSQLVIEAYKSGFEPPGDIEFEDYTQPMKRTVSDNSLSNSRGEGKPDLKFGGKSKGKLWPFIKKNKLMSLLTSPHQPPPPPPASASPSAVPNGPQSPKQQKEPLSHRFNEFMTSKPKIHCFRSLKRGLSLKLGATPEDFSNLPPEQRRKKLQQKVDELNKEIQKEMDQRDAITKMKDVYLKNPQMGDPASLDHKLAEVSQNIEKLRVETQKFEAWLAEVEGRLPARSEQARRQSGLYDSQNPPTVNNCAQDRESPDGSYTEEQSQESEMKVLATDFDDEFDDEEPLPAIGTCKALYTFEGQNEGTISVVEGETLYVIEEDKGDGWTRIRRNEDEEGYVPTSYVEVCLDKNAKDS
Consider B3, for which, in assay [1], the binding entry is reported as “binds”.
